## Melanoma cell counts after drug treatment

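Human melanoma cell lines in 1,536-well plates were treated with two drugs together for 72 h, then fixed, stained and imaged. The read-out is cell count (nuclei) in % of the DMSO control; lower values mean stronger growth inhibition or killing. Concentrations were fixed for each drug; these are the higher of two levels. The file gives one value for each pair and line, without errors, so small differences may be noise.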 An unselected part of the screen is shown. A dash means that no value is listed here.

First drug in all entries: ZM336372, 10 µM, Cc1ccc(NC(=O)c2cccc(N(C)C)c2)cc1NC(=O)c1ccc(O)cc1

| Second drug | COLO 800 | COLO 829 | WM451Lu | COLO 792 | C32 | WM3619 |
|---|---|---|---|---|---|---|
| CCc1ccc(CCOc2ccc(CC3SC(=O)NC3=O)cc2)nc1 (stereo not drawn) at 10 µM | 100 | 110 | 74.0 | 103 | 91.1 | 84.6 |
| NC1(c2ccc(-c3nc4ccn5c(=O)[nH]nc5c4cc3-c3ccccc3)cc2)CCC1 at 2 µM | 85.1 | 95.2 | 107 | 82.1 | 92.3 | 97.5 |
| CN(c1ncccc1CNc1nc(Nc2ccc3c(c2)CC(=O)N3)ncc1C(F)(F)F)S(C)(=O)=O at 0.4 µM | 135 | 82.6 | 60.5 | 77.9 | 74.9 | 76.5 |
| C[As](C)SC[C@H](NC(=O)CC[C@H](N)C(=O)O)C(=O)NCC(=O)O at 2 µM | 114 | 85.3 | 73.7 | 102 | 102 | 80.8 |
| Cc1ccc(Nc2nccc(N(C)c3ccc4c(C)n(C)nc4c3)n2)cc1S(N)(=O)=O at 2 µM | 76.8 | 93.3 | 98.2 | 79.1 | 109 | 57.3 |
| C=CCNC1=C2C[C@@H](C)C[C@H](OC)[C@H](O)[C@@H](C)/C=C(\C)[C@H](OC(N)=O)[C@@H](OC)/C=C\C=C(/C)C(=O)NC(=CC1=O)C2=O at 0.01 µM | 118 | 107 | 109 | 88.9 | 15.8 | 49.6 |
| CCN(CC)CCCCNc1ncc2cc(-c3cc(OC)cc(OC)c3)c(NC(=O)NC(C)(C)C)nc2n1 at 0.5 µM | 60.3 | 96.5 | 92.2 | 95.7 | 110 | 113 |
| C[C@]1(O)C[C@@H](c2nc(-c3ccc4ccc(-c5ccccc5)nc4c3)c3c(N)nccn32)C1 at 2 µM | 73.1 | 104 | 135 | 139 | 103 | - |
| Nc1ccn([C@@H]2O[C@H](CO)[C@@H](O)C2(F)F)c(=O)n1 at 0.002 µM | 41.8 | 50.3 | 47.8 | 86.4 | 110 | 54.5 |
| COc1ccc(COc2ccc(Cc3cnc(N)nc3N)cc2OC)cc1 at 5 µM | 134 | 95.7 | 110 | 103 | 105 | 110 |
| CS(=O)(=O)CCNCc1ccc(-c2ccc3ncnc(Nc4ccc(OCc5cccc(F)c5)c(Cl)c4)c3c2)o1 at 4 µM | 51.3 | 72.8 | 77.5 | 64.3 | 93.3 | 54.6 |
| O=C1NC(=O)/C(=C/c2ccc(-c3ccc(F)cc3O)o2)S1 at 5 µM | 83.9 | 86.0 | 85.1 | 97.3 | 86.8 | 77.9 |
| O=C(O)c1ccc2c(c1)nc(Nc1cccc(Cl)c1)c1ccncc12 at 2 µM | 72.4 | 41.8 | 94.8 | 75.5 | 74.1 | 71.3 |
| Cn1nnc2c(C(N)=O)ncn2c1=O at 10 µM | 142 | 85.7 | 85.7 | 88.3 | 94.2 | 109 |
| O=C(CCCCCCC(=O)Nc1ccccc1)NO at 0.4 µM | 91.9 | 76.8 | 78.3 | 73.4 | 92.3 | 78.0 |
| O=C(O)C(=O)Nc1sc2c(c1C(=O)O)CCNC2 at 8.33 µM | 148 | 137 | 70.4 | 99.5 | 94.6 | 104 |
| COCC[n+]1c2c(n(Cc3cnccn3)c1C)C(=O)c1ccccc1C2=O at 0.002 µM | 56.0 | 94.6 | 49.9 | 77.8 | 93.1 | 79.2 |
| C[C@]12O[C@H](C[C@]1(O)CO)n1c3ccccc3c3c4c(c5c6ccccc6n2c5c31)CNC4=O at 0.02 µM | 42.9 | 80.6 | 88.1 | 60.8 | 96.4 | 57.6 |
| C[C@]1(c2nc3c(C(N)=O)cccc3[nH]2)CCCN1 at 7 µM | 43.5 | 94.0 | 112 | 85.1 | 91.9 | 90.2 |
| Nc1cccc2c1CN(C1CCC(=O)NC1=O)C2=O (stereo not drawn) at 5 µM | 137 | 115 | 99.2 | 83.4 | 104 | 107 |
| CC(C)CCN1c2nc(Nc3cc(F)c(O)c(F)c3)ncc2N(C)C(=O)C1C (stereo not drawn) at 1 µM | 57.8 | 117 | 77.1 | 73.8 | 91.6 | 61.4 |
| O=c1cc(-c2cccc3c2Sc2ccccc2S3)oc(N2CCOCC2)c1 at 5 µM | 100 | 101 | 91.0 | 73.5 | 90.4 | 73.9 |
| CC(C)C[C@H](NC(=O)[C@H](Cc1ccccc1)NC(=O)c1cnccn1)B(O)O at 0.005 µM | 60.2 | 16.9 | 21.7 | 65.4 | 23.1 | 3.6 |
| Cc1cc(SCc2sc(-c3ccc(C(F)(F)F)c(F)c3)nc2C)ccc1OCC(=O)O at 10 µM | 98.9 | 105 | 115 | 101 | 116 | 92.7 |
| OCc1c[nH]c2ccccc12 at 4 µM | 109 | 132 | 111 | 125 | 110 | 81.7 |
| Cn1cc(C2=C(c3cn(C4CCN(Cc5ccccn5)CC4)c4ccccc34)C(=O)NC2=O)c2ccccc21 at 4 µM | 71.3 | 104 | 89.9 | 106 | 98.1 | 134 |
| Oc1nc(-c2ccc(C(F)(F)F)cc2)nc2c1CSCC2 at 10 µM | 117 | 138 | 105 | 84.1 | 104 | - |
| Cn1c(Nc2ccc(C(F)(F)F)cc2)nc2cc(Oc3ccnc(-c4ncc(C(F)(F)F)[nH]4)c3)ccc21 at 0.4 µM | 49.0 | 62.2 | 51.7 | 30.1 | 49.0 | 53.6 |
| CC1(C)CCC(c2ccc(Cl)cc2)=C(CN2CCN(c3ccc(C(=O)NS(=O)(=O)c4ccc(N[C@H](CCN5CCOCC5)CSc5ccccc5)c(S(=O)(=O)C(F)(F)F)c4)cc3)CC2)C1 at 2 µM | 38.2 | 90.7 | 91.1 | 30.8 | 85.9 | 89.3 |
| Cc1cc(Nc2cc(N3CCN(C)CC3)nc(/C=C/c3ccccc3)n2)n[nH]1 at 0.2 µM | 68.9 | 94.4 | 117 | 73.7 | 81.1 | 89.4 |
| O=c1[nH]nc(Sc2ncc([N+](=O)[O-])s2)n1-c1ccc2c(c1)OCCO2 at 1 µM | 82.2 | 107 | 101 | 118 | 87.5 | 101 |
| C/C(O)=C(\C#N)C(=O)Nc1cc(Br)ccc1Br at 10 µM | 90.5 | 93.4 | 99.0 | 75.2 | 92.3 | 80.0 |
| COc1ccc(C2=N[C@@H](c3ccc(Cl)cc3)[C@@H](c3ccc(Cl)cc3)N2C(=O)N2CCNC(=O)C2)c(OC(C)C)c1 at 0.5 µM | 120 | 84.4 | 121 | 136 | 74.9 | 88.1 |
| Cc1nc(Nc2ncc(C(=O)Nc3c(C)cccc3Cl)s2)cc(N2CCN(CCO)CC2)n1 at 0.02 µM | 64.5 | 87.8 | 70.7 | 57.0 | 67.7 | 110 |

Once more, the final 2:

Second drug	COLO 800	COLO 829	WM451Lu	COLO 792	C32	WM3619
COc1ccc(C2=N[C@@H](c3ccc(Cl)cc3)[C@@H](c3ccc(Cl)cc3)N2C(=O)N2CCNC(=O)C2)c(OC(C)C)c1 at 0.5 µM	120	84.4	121	136	74.9	88.1
Cc1nc(Nc2ncc(C(=O)Nc3c(C)cccc3Cl)s2)cc(N2CCN(CCO)CC2)n1 at 0.02 µM	64.5	87.8	70.7	57.0	67.7	110

Data from the primary screen of doi:10.1371/journal.pone.0140310, rounded.